In US20180028478A1, “ANTIVIRAL COMPOSITIONS DIRECTED AGAINST THE NUCLEOPROTEIN OF INFLUENZA VIRUSES” (priority 2011, published 2018):

Assays:
uninfected MDCK cells = assay: MTT test on uninfected MDCK cells; conditions: MTT 24 or 48 H, 2-500 μM
A549 cells = assay: MTT cell viability test on A549 cells

SMILES: COc1ccc2cc(C(C)C(=O)O)ccc2c1 (stereo not drawn) [Naproxen]
- toxicity (MTT) (uninfected MDCK cells): No toxicity
- toxicity for A549 cells (MTT) (A549 cells; 48H incubation, 1 to 500 μm): not toxic
- cellular toxicity (MTT) (A549 cells; A549, MTT 48 H, 2-500 μM): No toxicity
